Assay results reported in the supplement of paper PMC10849652.
Some of the results follow.

The chains behind the UniProt entries cited, without tags or fusion partners. Where a name states a change or a piece, a line headed by the entry shows the natural chain unless it says otherwise.
UniProt O14818: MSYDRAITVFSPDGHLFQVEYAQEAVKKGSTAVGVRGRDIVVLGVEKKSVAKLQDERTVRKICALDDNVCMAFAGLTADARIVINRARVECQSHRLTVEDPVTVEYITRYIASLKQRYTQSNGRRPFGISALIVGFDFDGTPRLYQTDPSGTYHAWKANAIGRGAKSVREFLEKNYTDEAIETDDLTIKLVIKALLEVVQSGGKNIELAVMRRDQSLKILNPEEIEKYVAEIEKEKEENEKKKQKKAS
UniProt Q96QR8: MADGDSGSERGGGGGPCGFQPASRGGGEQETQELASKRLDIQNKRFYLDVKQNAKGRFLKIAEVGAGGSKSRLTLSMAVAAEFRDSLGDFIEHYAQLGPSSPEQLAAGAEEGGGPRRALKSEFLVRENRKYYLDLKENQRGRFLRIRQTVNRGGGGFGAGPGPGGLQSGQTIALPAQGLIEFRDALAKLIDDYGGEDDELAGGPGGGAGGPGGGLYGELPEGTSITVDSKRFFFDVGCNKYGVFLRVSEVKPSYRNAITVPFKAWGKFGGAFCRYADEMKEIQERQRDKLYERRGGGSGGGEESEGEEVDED
UniProt P43686, whole entry, looked up: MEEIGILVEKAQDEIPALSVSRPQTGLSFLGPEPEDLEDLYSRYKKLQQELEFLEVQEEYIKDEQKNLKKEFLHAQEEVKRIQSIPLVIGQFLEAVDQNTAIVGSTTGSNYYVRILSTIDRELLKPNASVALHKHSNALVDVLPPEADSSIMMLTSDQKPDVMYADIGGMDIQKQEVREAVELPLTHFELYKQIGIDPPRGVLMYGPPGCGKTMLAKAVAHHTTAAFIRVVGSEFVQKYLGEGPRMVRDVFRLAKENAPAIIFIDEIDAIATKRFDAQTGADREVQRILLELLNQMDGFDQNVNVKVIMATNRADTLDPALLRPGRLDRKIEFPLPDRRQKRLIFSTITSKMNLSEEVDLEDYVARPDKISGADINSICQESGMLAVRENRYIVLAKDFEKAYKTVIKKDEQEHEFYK
UniProt Q86TP1: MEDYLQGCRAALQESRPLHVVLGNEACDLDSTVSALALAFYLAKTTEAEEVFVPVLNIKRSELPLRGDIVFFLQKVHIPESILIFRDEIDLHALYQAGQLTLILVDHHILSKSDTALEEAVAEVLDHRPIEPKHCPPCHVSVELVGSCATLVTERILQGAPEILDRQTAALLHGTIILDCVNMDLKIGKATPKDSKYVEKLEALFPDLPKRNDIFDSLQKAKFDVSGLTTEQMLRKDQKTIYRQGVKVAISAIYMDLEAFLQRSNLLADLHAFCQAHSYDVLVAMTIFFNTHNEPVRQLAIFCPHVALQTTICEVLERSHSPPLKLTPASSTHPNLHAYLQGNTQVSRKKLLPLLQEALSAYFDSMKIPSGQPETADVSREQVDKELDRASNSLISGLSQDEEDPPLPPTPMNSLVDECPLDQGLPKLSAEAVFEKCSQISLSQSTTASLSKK
UniProt Q12913: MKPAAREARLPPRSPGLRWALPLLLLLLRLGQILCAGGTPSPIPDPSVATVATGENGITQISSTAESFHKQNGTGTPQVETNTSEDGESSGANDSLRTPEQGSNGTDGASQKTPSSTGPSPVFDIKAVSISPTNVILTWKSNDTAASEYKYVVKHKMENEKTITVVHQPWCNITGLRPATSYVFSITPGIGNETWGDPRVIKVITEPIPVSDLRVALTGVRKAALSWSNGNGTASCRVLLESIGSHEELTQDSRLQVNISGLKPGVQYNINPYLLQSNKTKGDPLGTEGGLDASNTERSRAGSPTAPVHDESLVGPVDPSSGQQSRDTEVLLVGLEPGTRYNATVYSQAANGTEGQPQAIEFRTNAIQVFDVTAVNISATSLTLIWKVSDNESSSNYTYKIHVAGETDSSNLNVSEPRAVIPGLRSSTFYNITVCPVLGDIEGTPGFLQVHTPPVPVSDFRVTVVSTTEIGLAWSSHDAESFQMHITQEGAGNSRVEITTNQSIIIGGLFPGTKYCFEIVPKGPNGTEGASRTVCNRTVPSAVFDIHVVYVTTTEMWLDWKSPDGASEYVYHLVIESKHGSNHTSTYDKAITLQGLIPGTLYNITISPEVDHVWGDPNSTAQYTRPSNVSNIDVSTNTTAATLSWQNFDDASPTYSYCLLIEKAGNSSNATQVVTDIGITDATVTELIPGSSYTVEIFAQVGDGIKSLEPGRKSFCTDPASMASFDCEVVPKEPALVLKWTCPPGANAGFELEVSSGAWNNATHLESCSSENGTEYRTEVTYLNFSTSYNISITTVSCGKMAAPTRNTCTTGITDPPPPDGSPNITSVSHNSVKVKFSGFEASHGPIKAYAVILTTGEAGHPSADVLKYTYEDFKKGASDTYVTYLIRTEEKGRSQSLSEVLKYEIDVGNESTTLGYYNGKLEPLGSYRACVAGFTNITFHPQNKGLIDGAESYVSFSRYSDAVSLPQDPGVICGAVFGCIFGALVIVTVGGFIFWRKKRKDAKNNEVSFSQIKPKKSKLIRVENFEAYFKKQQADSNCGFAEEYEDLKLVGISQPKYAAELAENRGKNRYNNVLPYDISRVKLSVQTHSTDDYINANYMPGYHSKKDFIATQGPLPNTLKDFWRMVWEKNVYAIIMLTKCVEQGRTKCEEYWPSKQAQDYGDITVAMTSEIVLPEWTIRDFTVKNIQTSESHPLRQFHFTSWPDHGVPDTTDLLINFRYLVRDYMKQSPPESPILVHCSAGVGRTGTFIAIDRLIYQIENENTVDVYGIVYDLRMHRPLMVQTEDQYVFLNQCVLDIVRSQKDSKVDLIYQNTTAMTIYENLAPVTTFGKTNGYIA
UniProt P25786: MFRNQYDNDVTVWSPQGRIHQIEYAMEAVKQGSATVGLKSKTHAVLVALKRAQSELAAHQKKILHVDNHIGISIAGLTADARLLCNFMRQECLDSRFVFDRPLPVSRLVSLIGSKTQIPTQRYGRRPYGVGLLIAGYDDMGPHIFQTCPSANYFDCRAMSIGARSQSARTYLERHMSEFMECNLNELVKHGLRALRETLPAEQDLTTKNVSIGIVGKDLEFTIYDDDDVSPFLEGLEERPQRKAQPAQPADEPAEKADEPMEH
UniProt P35236: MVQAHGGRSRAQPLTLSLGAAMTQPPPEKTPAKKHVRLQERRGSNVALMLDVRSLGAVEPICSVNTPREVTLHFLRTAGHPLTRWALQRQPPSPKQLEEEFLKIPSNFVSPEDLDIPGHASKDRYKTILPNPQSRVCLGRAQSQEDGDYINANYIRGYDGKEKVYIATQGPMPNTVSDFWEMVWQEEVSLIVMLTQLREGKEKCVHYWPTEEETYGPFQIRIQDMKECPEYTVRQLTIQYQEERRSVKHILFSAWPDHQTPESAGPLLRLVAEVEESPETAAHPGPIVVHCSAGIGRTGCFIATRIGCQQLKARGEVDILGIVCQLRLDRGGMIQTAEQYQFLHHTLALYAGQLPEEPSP
UniProt Q5THK1: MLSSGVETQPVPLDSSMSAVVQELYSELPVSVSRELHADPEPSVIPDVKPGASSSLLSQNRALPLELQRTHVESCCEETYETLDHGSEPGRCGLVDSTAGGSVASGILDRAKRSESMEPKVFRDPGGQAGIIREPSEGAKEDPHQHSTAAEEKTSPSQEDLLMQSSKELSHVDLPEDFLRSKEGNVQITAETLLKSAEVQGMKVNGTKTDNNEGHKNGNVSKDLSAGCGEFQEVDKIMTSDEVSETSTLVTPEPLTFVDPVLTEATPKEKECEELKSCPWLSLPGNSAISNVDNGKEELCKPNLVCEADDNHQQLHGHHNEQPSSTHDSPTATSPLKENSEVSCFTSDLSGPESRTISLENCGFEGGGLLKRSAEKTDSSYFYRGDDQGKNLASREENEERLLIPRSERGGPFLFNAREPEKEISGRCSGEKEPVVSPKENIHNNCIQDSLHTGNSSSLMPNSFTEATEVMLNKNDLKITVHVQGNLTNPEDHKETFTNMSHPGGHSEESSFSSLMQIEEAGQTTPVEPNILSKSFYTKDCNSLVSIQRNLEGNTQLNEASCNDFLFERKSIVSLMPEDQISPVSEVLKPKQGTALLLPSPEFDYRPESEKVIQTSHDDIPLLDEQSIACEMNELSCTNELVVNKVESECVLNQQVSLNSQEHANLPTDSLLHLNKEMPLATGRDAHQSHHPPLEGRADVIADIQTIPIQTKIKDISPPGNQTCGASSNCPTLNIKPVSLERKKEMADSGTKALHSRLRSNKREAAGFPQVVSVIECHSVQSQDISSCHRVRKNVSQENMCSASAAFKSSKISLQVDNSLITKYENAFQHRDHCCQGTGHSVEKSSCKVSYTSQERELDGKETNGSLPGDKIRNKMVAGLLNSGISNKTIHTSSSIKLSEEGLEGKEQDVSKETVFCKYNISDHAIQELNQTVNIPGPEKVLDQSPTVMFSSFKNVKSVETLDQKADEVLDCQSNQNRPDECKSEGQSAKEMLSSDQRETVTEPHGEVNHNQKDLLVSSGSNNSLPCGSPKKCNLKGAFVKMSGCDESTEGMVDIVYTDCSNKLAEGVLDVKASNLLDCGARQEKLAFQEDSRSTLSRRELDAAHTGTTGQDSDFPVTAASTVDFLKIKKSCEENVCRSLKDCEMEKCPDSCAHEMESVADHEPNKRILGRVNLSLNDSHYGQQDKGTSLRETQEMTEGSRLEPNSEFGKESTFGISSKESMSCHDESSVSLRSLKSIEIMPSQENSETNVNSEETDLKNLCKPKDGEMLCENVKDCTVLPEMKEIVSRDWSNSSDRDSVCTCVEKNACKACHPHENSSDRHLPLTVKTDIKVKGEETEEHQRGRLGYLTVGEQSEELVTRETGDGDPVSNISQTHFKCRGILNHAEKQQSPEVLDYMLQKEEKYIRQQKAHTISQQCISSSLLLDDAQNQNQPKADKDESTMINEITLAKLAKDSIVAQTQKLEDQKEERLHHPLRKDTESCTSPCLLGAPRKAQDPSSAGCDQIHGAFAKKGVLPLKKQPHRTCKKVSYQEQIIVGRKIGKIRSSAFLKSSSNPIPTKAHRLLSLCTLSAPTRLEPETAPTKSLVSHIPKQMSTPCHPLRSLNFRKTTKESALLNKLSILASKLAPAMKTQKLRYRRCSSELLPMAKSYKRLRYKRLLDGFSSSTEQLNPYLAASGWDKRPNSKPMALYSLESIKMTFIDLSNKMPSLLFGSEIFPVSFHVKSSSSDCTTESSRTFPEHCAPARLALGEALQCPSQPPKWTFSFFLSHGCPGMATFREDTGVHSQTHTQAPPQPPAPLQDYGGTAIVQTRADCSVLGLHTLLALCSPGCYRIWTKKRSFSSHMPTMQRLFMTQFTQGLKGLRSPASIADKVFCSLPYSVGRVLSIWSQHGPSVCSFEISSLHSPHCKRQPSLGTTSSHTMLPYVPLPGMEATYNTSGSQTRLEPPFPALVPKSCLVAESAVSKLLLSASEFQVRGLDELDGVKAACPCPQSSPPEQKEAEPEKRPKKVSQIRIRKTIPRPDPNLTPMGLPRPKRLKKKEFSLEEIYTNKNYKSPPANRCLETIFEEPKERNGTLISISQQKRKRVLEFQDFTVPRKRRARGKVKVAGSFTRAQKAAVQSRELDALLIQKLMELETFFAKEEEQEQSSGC
UniProt O95758: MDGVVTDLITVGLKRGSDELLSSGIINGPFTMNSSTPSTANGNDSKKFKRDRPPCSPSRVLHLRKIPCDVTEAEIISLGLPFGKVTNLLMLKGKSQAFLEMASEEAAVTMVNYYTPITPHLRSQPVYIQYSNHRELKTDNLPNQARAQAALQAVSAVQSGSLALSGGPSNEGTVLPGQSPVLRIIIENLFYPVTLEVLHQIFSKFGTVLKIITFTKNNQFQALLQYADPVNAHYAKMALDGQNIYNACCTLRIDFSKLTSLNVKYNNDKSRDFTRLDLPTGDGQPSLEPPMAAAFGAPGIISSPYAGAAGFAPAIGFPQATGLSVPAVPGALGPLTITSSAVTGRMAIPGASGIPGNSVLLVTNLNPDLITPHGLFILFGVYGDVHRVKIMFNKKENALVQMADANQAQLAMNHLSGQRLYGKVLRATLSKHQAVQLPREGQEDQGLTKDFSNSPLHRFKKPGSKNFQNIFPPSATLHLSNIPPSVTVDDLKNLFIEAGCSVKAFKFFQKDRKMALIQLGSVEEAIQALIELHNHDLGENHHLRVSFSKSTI
UniProt P20618: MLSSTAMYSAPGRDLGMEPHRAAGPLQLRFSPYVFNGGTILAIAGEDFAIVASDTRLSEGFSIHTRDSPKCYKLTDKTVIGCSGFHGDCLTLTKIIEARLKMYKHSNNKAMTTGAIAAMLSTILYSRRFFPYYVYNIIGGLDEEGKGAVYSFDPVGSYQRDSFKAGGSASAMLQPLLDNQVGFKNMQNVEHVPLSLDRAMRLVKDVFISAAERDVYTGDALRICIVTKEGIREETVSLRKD

Columns and labels:
Assay in all cases: log2 fold change, soluble protein after heating vs DMSO (PISA); higher = thermal stabilisation; K562 lysate, 10 uM; active = over 0.2 and 3.5 SD of the protein, either way, in both replicates (recomputed)
nilotinib = compound: Cc1cn(-c2cc(NC(=O)c3ccc(C)c(Nc4nccc(-c5cccnc5)n4)c3)cc(C(F)(F)F)c2)cn1 [nilotinib]
Procedure, shortened: (§1)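 Following dounce homogenisation of K562 pellets in PBS pH 7.4 with 1 mM MgCl2, crude extract at 1 mg/mL protein was incubated for 30 min with 10 μM compound. Aliquots were then heated for 3 min over 48°C-58°C and pooled, NP-40 was added to 0.5% at 4°C, and soluble protein was recovered as the supernatant at 21,000xg for 90 min. Channel-sum-equalised TMTpro 16plex LC-MS/MS quantified this protein. Each value, from duplicates, is a log-two fold change in thermal stability relative to solvent controls.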

[1] = compound: Cc1nc(Nc2n[nH]c3c2CN(C(=O)N[C@H](CN(C)C)c2ccccc2)C3(C)C)c2sccc2n1
Procedure, shortened: as §1

[2] = compound: Cc1ncc(-c2ccnc(Nc3ccc(S(C)(=O)=O)cc3)n2)n1C(C)C
Procedure, shortened: as §1

quisinostat = compound: Cn1cc(CNCC2CCN(c3ncc(C(=O)NO)cn3)CC2)c2ccccc21 [quisinostat]
Procedure, shortened: as §1

tipifarnib = compound: Cn1cncc1[C@@](N)(c1ccc(Cl)cc1)c1ccc2c(c1)c(-c1cccc(Cl)c1)cc(=O)n2C [tipifarnib]
Procedure, shortened: as §1

[3] = compound: NC(=O)Nc1cc(-c2cccc(F)c2)sc1C(=O)N[C@H]1CCCNC1
Procedure, shortened: as §1

[4] = compound: NC1(c2ccc(-c3nc4ccn5c(=O)[nH]nc5c4cc3-c3ccccc3)cc2)CCC1
Procedure, shortened: as §1

[5] = compound: NCC(=O)Nc1ccc(-n2nc(C(F)(F)F)cc2-c2ccc3c(ccc4ccccc43)c2)cc1
Procedure, shortened: as §1

vorinostat = compound: O=C(CCCCCCC(=O)Nc1ccccc1)NO [vorinostat]
Procedure, shortened: as §1

silmitasertib = compound: O=C(O)c1ccc2c(c1)nc(Nc1cccc(Cl)c1)c1ccncc12 [silmitasertib]
Procedure, shortened: as §1

[6] = compound: O=C1NC(=O)C(c2cnc3ccccn23)=C1c1cn2c3c(cc(F)cc13)CN(C(=O)N1CCCCC1)CC2
Procedure, shortened: as §1

dasatinib = compound: Cc1nc(Nc2ncc(C(=O)Nc3c(C)cccc3Cl)s2)cc(N2CCN(CCO)CC2)n1 [dasatinib]
Procedure, shortened: as §1

[7] = compound: Cn1cc(-c2ccc3c(c2)CCN3C(=O)Cc2cccc(C(F)(F)F)c2)c2c(N)ncnc21
Procedure, shortened: as §1

[8] = compound: NC(=O)c1cnc(N[C@@H]2CCCC[C@@H]2N)nc1Nc1cccc(-n2nccn2)c1
Procedure, shortened: as §1

entospletinib = compound: c1cn2cc(-c3ccc4cn[nH]c4c3)nc(Nc3ccc(N4CCOCC4)cc3)c2n1 [entospletinib]
Procedure, shortened: as §1

Target	log2 fold change (nilotinib)	log2 fold change [1]	log2 fold change [2]	log2 fold change (quisinostat)	log2 fold change (tipifarnib)	log2 fold change [3]	log2 fold change [4]	log2 fold change [5]	log2 fold change (vorinostat)	log2 fold change (silmitasertib)	log2 fold change [6]	log2 fold change (dasatinib)	log2 fold change [7]	log2 fold change [8]	log2 fold change (entospletinib)
PSMD4 (UniProt Q5VWC4)	inactive: -0.069	inactive: -0.052	inactive: 0.059	inactive: -0.124	inactive: -0.015	inactive: 0.03	inactive: -0.141	inactive: 0.049	inactive: 0.29	inactive: -0.001	inactive: -0.005				
PSMA7 (UniProt O14818)	inactive: 0.02	inactive: -0.005	inactive: 0.009	inactive: 0.036	inactive: 0.015	inactive: -0.008	inactive: 0.029	inactive: -0.011	inactive: 0.113	inactive: -0.026	inactive: -0.023	inactive: 0.043	inactive: -0.036	inactive: -0.001	inactive: 0.004
PURB (UniProt Q96QR8)	inactive: 0.011	inactive: 0.018	inactive: -0.008	inactive: 0.13	inactive: -0.033	inactive: -0.028	inactive: -0.028	inactive: -0.004	inactive: 0.064	inactive: -0.006	inactive: 0.007	inactive: 0.032	inactive: 0.035	inactive: 0.007	inactive: -0.04
PSMC4 (UniProt P43686)	inactive: 0.001	inactive: 0.001	inactive: 0.008	inactive: -0.012	inactive: 0.001	inactive: 0.02	inactive: -0.009	inactive: 0.006	inactive: -0.017	inactive: -0.004	inactive: 0.007	inactive: -0.024	inactive: 0.005	inactive: 0.003	inactive: 0.02
PRUNE1 (UniProt Q86TP1)	inactive: 0.009	inactive: -0.031	inactive: 0.02	inactive: -0.034	inactive: -0.009	inactive: 0.016	inactive: -0.037	inactive: 0.009	inactive: -0.053	inactive: 0.016	inactive: -0.017	inactive: 0.018	inactive: 0.012	inactive: -0.005	inactive: 0.017
PSEN2 (UniProt P49810)	inactive: -0.142	inactive: -0.058	inactive: 0.052	inactive: -0.051	inactive: 0.004	inactive: -0.087					inactive: -0.049	inactive: -0.009	inactive: -0.151		inactive: -0.052
PRPSAP2 (UniProt O60256)	inactive: 0.045	inactive: 0	inactive: 0.028	inactive: 0.066	inactive: 0.014	inactive: -0.008	inactive: 0.063	inactive: 0.009	inactive: -0.067	inactive: 0.017	inactive: -0.002	inactive: -0.006	inactive: 0.027	inactive: -0.014	inactive: 0.011
PTPRJ (UniProt Q12913)	inactive: -0.053	inactive: -0.025	inactive: 0.093	inactive: 0.019	inactive: -0.077	inactive: -0.062	inactive: -0.058	inactive: -0.014	inactive: 0.058	inactive: -0.037	inactive: 0.016			inactive: -0.041	inactive: -0.023
PSMA1 isoform 2 (UniProt P25786)	inactive: 0.001	inactive: 0.014	inactive: 0.028	inactive: 0.01	inactive: 0.025	inactive: -0.018	inactive: 0.011	inactive: 0.017	inactive: 0.122	inactive: -0.014	inactive: 0.001	inactive: 0.035	inactive: -0.029	inactive: -0.031	inactive: 0.024
PTPRB isoform 3 (UniProt P23467)	inactive: -0.269	inactive: 0.145	inactive: 0.062		inactive: -0.036							inactive: -0.367	inactive: -0.01	inactive: 0.329	
PTPN7 isoform 3 (UniProt P35236)	inactive: -0.03	inactive: 0.017	inactive: -0.021	inactive: 0.008	inactive: 0.054	inactive: -0.006	inactive: -0.043	inactive: 0.031	active: -0.491	inactive: 0.01	inactive: -0.044	inactive: -0.088	inactive: 0.064	inactive: -0.015	inactive: -0.008
PSMD6 (UniProt Q15008)	inactive: -0.024	inactive: 0.079	inactive: 0.221	inactive: 0.072	inactive: -0.094	inactive: -0.012					inactive: -0.052			inactive: 0.033	
PRR14L (UniProt Q5THK1)	inactive: 0.05	inactive: -0.008	inactive: 0.011	inactive: -0.013	inactive: 0.075	inactive: 0.018	inactive: -0.155	inactive: 0.027	inactive: -0.022	inactive: 0.021	inactive: -0.058	inactive: 0.028	inactive: -0.006		inactive: 0.004
PTBP3 isoform 4 (UniProt O95758)	inactive: 0.061	inactive: -0.046	inactive: 0.002	inactive: -0.041	inactive: 0.008	inactive: -0.019	inactive: 0.047	inactive: 0.025	inactive: -0.212	inactive: -0.011	inactive: 0.012	inactive: -0.009	inactive: 0.04	inactive: -0.006	inactive: 0.057
PSMB1 (UniProt P20618)	inactive: 0.005	inactive: -0.004	inactive: 0	inactive: -0.005	inactive: -0.002	inactive: 0.005	inactive: -0.025	inactive: 0.024	inactive: 0.125	inactive: -0.019	inactive: 0.02	inactive: -0.005	inactive: -0.017	inactive: -0.02	inactive: -0.036

Single records, from the list above. Values in the order: log2 fold change (nilotinib)	log2 fold change [1]	log2 fold change [2]	log2 fold change (quisinostat)	log2 fold change (tipifarnib)	log2 fold change [3]	log2 fold change [4]	log2 fold change [5]	log2 fold change (vorinostat)	log2 fold change (silmitasertib)	log2 fold change [6]	log2 fold change (dasatinib)	log2 fold change [7]	log2 fold change [8]	log2 fold change (entospletinib)
PRUNE1 (UniProt Q86TP1) as listed: inactive: 0.009	inactive: -0.031	inactive: 0.02	inactive: -0.034	inactive: -0.009	inactive: 0.016	inactive: -0.037	inactive: 0.009	inactive: -0.053	inactive: 0.016	inactive: -0.017	inactive: 0.018	inactive: 0.012	inactive: -0.005	inactive: 0.017
PSMA1 isoform 2 (UniProt P25786) as listed: inactive: 0.001	inactive: 0.014	inactive: 0.028	inactive: 0.01	inactive: 0.025	inactive: -0.018	inactive: 0.011	inactive: 0.017	inactive: 0.122	inactive: -0.014	inactive: 0.001	inactive: 0.035	inactive: -0.029	inactive: -0.031	inactive: 0.024
